# Measurements: PMC8748688
# By UniProt entry, the sequences of proteins in these tests, tags left out.
# UniProt Q14457: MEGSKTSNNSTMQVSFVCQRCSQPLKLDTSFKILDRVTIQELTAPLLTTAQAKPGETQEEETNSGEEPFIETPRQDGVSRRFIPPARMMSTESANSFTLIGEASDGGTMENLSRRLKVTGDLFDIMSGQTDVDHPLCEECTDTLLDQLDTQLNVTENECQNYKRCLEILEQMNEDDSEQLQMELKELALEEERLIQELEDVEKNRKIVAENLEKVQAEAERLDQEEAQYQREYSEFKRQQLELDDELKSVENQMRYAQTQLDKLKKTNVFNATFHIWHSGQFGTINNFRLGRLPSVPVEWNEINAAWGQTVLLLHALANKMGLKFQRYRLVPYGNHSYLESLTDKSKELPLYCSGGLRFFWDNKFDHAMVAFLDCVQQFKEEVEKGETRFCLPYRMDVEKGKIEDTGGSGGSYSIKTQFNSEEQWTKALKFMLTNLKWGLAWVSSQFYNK
# UniProt P10415: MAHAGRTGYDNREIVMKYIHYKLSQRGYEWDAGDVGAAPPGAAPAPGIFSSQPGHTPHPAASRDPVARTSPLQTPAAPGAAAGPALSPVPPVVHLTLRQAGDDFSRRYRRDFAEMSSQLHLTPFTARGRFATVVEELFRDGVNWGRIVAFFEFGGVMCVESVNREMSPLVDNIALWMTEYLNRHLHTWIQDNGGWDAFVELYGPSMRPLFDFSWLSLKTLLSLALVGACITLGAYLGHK
# Results are given in words; binding and its absence hold for the method and conditions named. In cells and extracts the contact can be indirect. Some results given as binding are weak or reduced against the parent protein; the word gives no strength.
# Assays:
# [1] = target: Beclin1 (human (endogenous in PC-3)) (UniProt Q14457); experiment: co-IP; PC-3 cell lysate, IP with Beclin1 antibody or Bcl-2 antibody (5 ug antibody, 500 ug protein), protein A + G beads, Western blot; control cells, CEMIP-overexpressing cells, and CEMIP overexpression with PKCalpha knockdown
# [2] = target: B-cell lymphoma-2 (Bcl-2) (human (endogenous in PC-3)) (UniProt P10415); experiment: as above
binding [1],binding [2],Substance
binds,–,B-cell lymphoma-2 (Bcl-2) (from UniProt P10415 1-239)
–,binds,Beclin1 (from UniProt Q14457 1-450)
